At least one compound was matched to its structure with a doubt left.
Test system: AML-OCI2 and AML-OCI3
Test: Volumetric cell counting of AML cell lines
Assay type: cell-based, human
Conditions: 72 h, serum-free conditions
Description: The number of AML-OCI2 and AML-OCI3 cells present after 72 h treatment with DR antagonists (FIG. 16b) and agonist (FIG. 16c-d) were counted by measuring the number of events within a fixed volume following the grating strategy defined by forward scatter and side scatter clustering, 7AAD− and Hoechst+.
Due to the bioavailability of dopamine in fetal bovine serum (FBS) (Little et al., 2002), serum-free conditions were employed to assess the role of DRs in AML. […] DR D2-family and D1-family exert opposing actions on intracellular signaling leading to differential biological effects (Self et al., 1996).

Compound: CN1CCN(C2=Nc3cc(Cl)ccc3Nc3ccccc32)CC1 [clozapine, Clozapine]
- number of AML cells: reduced
